From PubChem BioAssay AID222 (DTP/NCI, 2004)
The list is a part of this screen's results and no random one: its compounds were picked by chemical class. Other doses and runs of a compound may be missing. T/C gives the treated animals as a percentage of the vehicle group. Where survival is the endpoint, this PubChem deposit counts one and a half times the control or more as active, and values a quarter to a half above the control carry no call in these data; other NCI protocols may use other cut-offs. Some T/C values are marked as having no survivor count here; that says nothing about deaths at the dose. Schedule codes are those of the source, read here as Q, the interval in days (D) or hours (H), X, the number of doses.

Test system: C57BL/6 mice, intracerebral ependymoblastoma, median survival T/C
Experiment: NCI In Vivo Anticancer Drug Screen. Data for tumor model Ependymoblastoma (intracerebral) in C57BL/6 mice
Details: T/C endpoint: median survival time, schedule: Q01DX005 (ip), vehicle: saline, higher T/C = longer survival
Description: The antitumor activity of compounds was measured in mice bearing transplantable tumors. Survival or tumor size were measured and the results are expressed as the measurement made in the treated group (T) divided by the measurement made in the vehicle treated control group (C). The tumor model used in this assay is Ependymoblastoma (intracerebral) in C57BL/6 mice

CN(CCCl)CCCl
T/C (dose: 0.03 mg/kg/injection): 102 % of control [survivor count not shown]
T/C (dose: 0.06 mg/kg/injection): 96 % of control [survivor count not shown]
T/C (dose: 0.12 mg/kg/injection): 107 % of control [survivor count not shown]
T/C (dose: 0.25 mg/kg/injection): 87 % of control [survivor count not shown]
